Here are results for two molecules from article PMC3026782, “The Cytoskeletal Protein Ndel1 Regulates Dynamin 2 GTPase Activity” (PLoS ONE, 2011).

Assay [1] deals with T1, Ndel1 (human (endogenous in HeLa)) (UniProt Q9GZM8).
T1 sequence: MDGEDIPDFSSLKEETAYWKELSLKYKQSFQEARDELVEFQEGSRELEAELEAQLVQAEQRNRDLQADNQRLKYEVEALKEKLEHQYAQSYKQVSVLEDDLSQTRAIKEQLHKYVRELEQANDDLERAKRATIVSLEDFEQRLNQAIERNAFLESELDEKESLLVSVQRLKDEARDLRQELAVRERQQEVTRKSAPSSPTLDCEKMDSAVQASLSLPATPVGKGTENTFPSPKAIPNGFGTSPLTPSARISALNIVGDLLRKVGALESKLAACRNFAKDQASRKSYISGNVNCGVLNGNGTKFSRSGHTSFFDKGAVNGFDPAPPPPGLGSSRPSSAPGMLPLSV
Description: co-IP; immunoprecipitation with Ndel1 antibodies from lysates (HeLa cells, CAD cells, rat primary hippocampal neurons, adult mouse cortex); lysis buffer 50 mM Tris-HCl pH 7.4, 150 mM NaCl, 10 mM KCl, 1 mM EDTA, 0.5% NP40, 0.5% Tween-20; controls without antibody or with Myc antibody.

The target in assay [2] is GST-Dyn2 F1 (GTPase domain). Nature of the assay: pull-down; GST-fused Dyn2, its GST fragments or GST with His-tagged Ndel1 on Glutathione Sepharose 4 Fast Flow or Ni-NTA Agarose beads; 20 mM HEPES, 150 mM NaCl, 1 mM DTT, 0.1% BSA, 4°C, 2 hours; both purified.
Assay [3] deals with GST-Dyn2 F5 (GTPase+middle+PH+GED domains). Described as above.
Assay [4] addresses GST-Dyn2 middle domain. Described as above.

No constants are given. Whether binding was seen depends on the method and setting. Binding calls can cover weak binding; strength is not graded here. For some of these results: Tags and fused reporters may be left off the sequences shown. For some of these results: Binding seen in cells or lysates may run through a third protein.

Consider “Dynein intermediate chain (human (endogenous in HeLa))”, for which the binding entry in assay [1] is recorded as “binds”.

B1: His-tagged Ndel1 (natural protein, UniProt Q9GZM8 1-345, looked up)
chain: T1 sequence
Turning to B1, the binding result in assay [2], in assay [3] and in assay [4] was “binds” each time.
